Measured values from publication PMC5294206.
No constants are given. Whether binding was seen depends on the method and setting. In cells and extracts the contact can be indirect. These calls come from enrichment with a bait or labelling near it, and not all partners need be listed. Sequences can lack the tags named with a protein.

Protein sequences, listed by entry. Tags and fused reporters are not part of them.
UniProt P07737: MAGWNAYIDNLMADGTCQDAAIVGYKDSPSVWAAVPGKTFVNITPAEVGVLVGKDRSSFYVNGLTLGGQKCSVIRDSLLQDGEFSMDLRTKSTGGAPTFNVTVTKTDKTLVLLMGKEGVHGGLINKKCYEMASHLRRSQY
UniProt O94851: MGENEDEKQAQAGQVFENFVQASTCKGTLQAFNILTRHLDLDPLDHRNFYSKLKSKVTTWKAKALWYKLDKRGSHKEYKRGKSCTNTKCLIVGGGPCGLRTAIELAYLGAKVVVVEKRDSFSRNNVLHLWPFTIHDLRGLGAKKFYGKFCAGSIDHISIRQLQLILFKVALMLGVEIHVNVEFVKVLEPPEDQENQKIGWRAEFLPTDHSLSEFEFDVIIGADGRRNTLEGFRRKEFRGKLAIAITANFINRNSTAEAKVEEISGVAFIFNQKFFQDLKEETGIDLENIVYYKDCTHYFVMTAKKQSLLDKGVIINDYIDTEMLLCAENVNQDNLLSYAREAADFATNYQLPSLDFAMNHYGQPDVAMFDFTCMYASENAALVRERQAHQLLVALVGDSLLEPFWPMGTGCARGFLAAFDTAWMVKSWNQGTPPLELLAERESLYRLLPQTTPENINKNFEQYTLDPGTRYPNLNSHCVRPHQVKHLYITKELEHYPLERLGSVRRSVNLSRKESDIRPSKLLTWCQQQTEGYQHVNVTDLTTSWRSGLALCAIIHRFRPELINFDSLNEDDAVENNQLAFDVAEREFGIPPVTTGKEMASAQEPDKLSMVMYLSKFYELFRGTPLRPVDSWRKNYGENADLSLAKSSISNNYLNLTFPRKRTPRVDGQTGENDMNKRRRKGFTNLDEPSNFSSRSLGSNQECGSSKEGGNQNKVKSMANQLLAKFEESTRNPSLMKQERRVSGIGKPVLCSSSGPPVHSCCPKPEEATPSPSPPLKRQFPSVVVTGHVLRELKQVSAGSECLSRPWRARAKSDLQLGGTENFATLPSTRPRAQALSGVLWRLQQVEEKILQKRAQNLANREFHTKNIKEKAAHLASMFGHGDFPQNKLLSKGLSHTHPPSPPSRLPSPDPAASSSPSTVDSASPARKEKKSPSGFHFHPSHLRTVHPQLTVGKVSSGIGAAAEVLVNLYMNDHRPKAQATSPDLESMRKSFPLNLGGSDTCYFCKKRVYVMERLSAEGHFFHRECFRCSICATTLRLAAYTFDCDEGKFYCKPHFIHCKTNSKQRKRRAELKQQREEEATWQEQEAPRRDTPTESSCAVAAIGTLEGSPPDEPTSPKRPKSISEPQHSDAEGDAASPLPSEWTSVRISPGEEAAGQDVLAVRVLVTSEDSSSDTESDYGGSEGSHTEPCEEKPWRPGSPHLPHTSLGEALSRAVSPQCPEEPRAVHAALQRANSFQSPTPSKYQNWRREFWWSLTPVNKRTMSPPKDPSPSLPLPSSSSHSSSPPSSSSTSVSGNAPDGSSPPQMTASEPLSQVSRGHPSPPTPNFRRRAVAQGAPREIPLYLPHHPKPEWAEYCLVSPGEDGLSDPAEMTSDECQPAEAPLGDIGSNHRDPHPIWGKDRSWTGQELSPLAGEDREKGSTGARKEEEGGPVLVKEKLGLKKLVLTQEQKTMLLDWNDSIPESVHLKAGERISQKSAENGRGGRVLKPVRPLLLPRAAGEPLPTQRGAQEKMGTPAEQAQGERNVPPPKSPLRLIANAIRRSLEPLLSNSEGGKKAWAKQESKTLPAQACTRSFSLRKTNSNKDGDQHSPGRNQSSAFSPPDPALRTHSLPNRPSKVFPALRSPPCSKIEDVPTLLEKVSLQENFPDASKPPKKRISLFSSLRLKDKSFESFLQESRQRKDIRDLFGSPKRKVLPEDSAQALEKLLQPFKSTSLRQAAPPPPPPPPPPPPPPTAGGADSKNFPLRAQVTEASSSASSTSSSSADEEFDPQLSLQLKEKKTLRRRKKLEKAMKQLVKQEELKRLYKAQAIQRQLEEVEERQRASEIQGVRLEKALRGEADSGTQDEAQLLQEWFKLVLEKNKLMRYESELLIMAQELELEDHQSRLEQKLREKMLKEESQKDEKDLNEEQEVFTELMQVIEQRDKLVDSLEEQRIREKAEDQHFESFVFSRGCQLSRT
UniProt Q08AE8: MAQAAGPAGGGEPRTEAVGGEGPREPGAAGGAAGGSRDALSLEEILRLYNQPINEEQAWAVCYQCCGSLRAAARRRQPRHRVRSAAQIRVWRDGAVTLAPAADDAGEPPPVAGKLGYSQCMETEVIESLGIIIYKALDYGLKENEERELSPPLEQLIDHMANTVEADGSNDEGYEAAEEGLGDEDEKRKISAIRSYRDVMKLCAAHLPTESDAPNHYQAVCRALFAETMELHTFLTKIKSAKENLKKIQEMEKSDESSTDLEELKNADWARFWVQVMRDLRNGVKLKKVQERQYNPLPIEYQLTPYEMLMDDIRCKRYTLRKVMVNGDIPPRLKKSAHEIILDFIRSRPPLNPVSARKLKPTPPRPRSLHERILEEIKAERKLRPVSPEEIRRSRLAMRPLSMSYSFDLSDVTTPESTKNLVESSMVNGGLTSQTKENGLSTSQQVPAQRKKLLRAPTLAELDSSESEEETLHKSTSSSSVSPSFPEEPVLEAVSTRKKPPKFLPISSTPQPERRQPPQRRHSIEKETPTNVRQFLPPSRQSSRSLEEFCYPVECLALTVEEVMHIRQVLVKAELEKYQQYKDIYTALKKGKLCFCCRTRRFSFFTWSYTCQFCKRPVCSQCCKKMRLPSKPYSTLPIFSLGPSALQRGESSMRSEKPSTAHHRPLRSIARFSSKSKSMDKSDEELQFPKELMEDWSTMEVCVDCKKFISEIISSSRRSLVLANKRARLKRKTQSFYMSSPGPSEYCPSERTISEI
UniProt P62258: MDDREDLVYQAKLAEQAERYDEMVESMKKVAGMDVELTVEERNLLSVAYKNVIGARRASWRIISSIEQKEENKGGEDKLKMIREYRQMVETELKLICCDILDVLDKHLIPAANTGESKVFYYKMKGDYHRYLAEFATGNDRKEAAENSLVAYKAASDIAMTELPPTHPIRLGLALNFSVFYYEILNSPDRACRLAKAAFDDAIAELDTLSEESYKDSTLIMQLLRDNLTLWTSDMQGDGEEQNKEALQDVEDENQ
UniProt Q9Y5S2: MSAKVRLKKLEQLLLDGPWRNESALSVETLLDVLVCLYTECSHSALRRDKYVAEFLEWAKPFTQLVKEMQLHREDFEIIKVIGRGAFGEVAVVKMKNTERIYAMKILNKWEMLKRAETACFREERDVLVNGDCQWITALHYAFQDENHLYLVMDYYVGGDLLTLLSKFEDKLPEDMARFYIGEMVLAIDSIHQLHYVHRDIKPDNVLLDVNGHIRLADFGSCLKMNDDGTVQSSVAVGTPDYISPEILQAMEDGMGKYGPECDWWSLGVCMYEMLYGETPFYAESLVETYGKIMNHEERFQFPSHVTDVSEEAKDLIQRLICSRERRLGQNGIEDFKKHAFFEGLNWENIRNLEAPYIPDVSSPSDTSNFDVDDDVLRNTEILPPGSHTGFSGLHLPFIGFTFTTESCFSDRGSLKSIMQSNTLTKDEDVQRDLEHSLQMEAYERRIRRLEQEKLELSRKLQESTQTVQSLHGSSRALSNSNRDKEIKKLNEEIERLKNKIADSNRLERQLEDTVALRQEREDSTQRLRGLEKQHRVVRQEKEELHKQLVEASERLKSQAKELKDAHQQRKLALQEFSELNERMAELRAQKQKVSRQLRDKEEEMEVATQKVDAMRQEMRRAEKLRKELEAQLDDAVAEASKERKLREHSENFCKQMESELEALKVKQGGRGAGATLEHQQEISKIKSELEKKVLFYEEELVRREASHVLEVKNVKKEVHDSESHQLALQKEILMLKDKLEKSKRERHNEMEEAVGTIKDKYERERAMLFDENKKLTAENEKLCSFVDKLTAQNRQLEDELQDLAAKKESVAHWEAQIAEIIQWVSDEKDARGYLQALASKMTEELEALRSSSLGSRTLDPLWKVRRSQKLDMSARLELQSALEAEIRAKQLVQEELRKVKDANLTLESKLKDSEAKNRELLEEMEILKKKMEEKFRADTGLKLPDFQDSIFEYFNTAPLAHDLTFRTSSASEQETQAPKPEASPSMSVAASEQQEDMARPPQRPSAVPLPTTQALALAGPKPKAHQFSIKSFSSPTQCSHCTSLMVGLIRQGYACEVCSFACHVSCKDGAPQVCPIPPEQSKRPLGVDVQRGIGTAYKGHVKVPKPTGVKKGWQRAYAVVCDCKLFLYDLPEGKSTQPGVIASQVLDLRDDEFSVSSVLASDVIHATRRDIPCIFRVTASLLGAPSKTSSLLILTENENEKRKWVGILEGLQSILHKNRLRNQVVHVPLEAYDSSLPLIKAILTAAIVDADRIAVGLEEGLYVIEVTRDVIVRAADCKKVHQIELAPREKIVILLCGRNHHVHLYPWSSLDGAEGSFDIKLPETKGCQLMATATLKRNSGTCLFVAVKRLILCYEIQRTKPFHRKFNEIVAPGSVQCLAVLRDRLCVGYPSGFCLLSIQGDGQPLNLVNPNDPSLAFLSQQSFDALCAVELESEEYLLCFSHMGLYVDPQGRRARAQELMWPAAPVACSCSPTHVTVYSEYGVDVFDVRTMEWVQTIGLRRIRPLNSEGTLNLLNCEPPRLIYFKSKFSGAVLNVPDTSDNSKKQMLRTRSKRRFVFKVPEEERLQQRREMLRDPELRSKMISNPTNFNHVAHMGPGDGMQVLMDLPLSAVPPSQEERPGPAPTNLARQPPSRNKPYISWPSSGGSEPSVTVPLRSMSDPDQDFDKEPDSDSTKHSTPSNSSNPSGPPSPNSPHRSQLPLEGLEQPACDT
UniProt P46940: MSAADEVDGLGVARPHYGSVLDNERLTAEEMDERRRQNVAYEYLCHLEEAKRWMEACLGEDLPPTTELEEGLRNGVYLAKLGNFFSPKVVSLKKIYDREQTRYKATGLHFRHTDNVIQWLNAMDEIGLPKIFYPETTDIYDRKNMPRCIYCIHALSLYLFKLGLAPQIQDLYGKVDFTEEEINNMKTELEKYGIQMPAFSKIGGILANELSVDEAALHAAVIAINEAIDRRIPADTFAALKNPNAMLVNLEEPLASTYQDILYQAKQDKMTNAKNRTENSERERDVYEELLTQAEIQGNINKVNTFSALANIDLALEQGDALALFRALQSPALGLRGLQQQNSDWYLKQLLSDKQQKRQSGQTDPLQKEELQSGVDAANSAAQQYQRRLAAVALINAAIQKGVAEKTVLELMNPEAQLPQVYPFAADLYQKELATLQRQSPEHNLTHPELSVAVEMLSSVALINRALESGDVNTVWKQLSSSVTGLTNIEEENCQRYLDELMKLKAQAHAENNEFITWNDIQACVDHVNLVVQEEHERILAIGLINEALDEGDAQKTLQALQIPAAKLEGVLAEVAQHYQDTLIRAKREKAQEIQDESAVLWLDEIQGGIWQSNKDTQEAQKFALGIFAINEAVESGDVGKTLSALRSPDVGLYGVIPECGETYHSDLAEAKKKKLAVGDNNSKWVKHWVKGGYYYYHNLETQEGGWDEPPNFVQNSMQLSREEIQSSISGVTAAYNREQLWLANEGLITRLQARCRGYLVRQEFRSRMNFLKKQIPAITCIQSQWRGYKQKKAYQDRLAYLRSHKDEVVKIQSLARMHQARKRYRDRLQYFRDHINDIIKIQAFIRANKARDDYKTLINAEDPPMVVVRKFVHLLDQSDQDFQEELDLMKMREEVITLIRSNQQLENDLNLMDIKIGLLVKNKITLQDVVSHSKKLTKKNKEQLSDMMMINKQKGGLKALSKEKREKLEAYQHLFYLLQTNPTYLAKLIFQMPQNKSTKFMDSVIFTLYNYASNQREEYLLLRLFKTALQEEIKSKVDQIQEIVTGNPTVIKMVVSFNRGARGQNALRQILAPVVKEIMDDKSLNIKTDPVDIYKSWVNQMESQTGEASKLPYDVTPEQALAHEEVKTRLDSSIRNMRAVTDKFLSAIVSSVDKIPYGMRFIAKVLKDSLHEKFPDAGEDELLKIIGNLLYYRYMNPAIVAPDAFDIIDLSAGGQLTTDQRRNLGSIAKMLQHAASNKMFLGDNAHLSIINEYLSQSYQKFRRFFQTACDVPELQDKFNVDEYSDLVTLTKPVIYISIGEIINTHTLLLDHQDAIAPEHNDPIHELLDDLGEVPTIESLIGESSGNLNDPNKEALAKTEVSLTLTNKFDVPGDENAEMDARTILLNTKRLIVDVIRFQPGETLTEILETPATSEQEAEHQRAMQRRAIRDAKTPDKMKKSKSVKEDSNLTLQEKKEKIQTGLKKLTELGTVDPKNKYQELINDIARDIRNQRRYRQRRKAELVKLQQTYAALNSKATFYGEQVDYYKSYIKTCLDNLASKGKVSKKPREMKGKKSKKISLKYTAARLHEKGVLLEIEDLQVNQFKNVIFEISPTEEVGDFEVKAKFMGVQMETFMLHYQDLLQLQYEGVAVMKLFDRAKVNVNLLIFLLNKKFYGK

T1: wild-type (WT) p130Cas, overexpressed from adenovirus (Ad.p130Cas) (UniProt P56945)
T1 sequence: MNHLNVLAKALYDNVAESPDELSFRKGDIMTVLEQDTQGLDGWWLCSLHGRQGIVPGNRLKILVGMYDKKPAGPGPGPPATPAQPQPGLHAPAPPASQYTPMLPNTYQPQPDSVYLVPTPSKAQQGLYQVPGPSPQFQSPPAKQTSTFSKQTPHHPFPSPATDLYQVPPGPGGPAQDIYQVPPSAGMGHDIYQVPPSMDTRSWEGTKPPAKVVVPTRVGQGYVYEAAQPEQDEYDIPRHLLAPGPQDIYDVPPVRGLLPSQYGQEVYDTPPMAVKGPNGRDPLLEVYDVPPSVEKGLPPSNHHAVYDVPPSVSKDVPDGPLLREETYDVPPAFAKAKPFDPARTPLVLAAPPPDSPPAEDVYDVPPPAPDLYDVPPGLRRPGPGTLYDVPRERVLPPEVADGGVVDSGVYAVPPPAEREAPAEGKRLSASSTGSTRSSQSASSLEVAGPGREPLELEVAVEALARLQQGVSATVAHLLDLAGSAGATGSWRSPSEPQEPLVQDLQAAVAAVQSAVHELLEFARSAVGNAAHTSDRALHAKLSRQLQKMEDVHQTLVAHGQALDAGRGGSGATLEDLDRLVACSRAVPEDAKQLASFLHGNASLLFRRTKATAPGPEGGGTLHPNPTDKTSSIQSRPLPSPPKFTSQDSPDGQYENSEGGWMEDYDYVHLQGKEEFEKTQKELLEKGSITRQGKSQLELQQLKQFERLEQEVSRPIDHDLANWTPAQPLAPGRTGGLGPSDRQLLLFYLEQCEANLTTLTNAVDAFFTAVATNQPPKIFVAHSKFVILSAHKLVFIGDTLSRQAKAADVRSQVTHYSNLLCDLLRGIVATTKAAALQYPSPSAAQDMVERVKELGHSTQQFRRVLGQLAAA

B1: cysteine and glycine rich protein 1 (CSRP1) (protein, UniProt P21291 1-193)
chain: MPNWGGGKKCGVCQKTVYFAEEVQCEGNSFHKSCFLCMVCKKNLDSTTVAVHGEEIYCKSCYGKKYGPKGYGYGQGAGTLSTDKGESLGIKHEEAPGHRPTTNPNASKFAQKIGGSERCPRCSQAVYAAEKVIGAGKSWHKACFRCAKCGKGLESTTLADKDGEIYCKGCYAKNFGPKGFGFGQGAGALVHSE
B2: cysteine and glycine rich protein 2 (CSRP2) (protein, UniProt Q16527 1-193)
chain: MPVWGGGNKCGACGRTVYHAEEVQCDGRSFHRCCFLCMVCRKNLDSTTVAIHDEEIYCKSCYGKKYGPKGYGYGQGAGTLNMDRGERLGIKPESVQPHRPTTNPNTSKFAQKYGGAEKCSRCGDSVYAAEKIIGAGKPWHKNCFRCAKCGKSLESTTLTEKEGEIYCKGCYAKNFGPKGFGYGQGAGALVHAQ
B3: RhoGEF and PH domain containing 5 (FGD5) (protein, UniProt Q6ZNL6 1-1462)
chain: MFRGPKPPIAPKPRLTAPNEWRASVYLNDSLNKCSNGRLPCVDRGLDEGPRSIPKCSESETDEDYIVVPRVPLREDEPKDEGSVGNKALVSPESSAEEEEEREEGGEACGLEGTGAGEDSVAPAAPGAGALSREGEEGTDLALEDEGEGCADEPGTLEQVSRSEEEEKLVQPHRECSLEDSGPWAGEGVFQSDLLLPHIHGEDQEPPDTPGEAEEDDEEGCASTDPAGADEGSGPDRPTEDMGQDAEDTSEEPPEKEELAGVQEAETATDCPEVLEEGCEEATGVTGGEQVDLSEPPDHEKKTNQEVAAATLEDHAQDESAEESCQIVPFENDCMEDFVTSLTGSPYEFFPTESTSFCSESCSPLSESAKGLESEQAPKLGLRAEENPMVGALCGQCGSLQGGAAEGPAAPDVVVVLEEEALDDALANPYVMGVGLPGQAAPGEGGQAASDALGGYGSKEELNCEAEGGLVPADRKNTSTRVRPHSGKVAGYVPETVPEETGPEAGSSAPGIGGAAEEVGKTLLSLEGKPLEASRALPAKPRAFTLYPRSFSVEGREIPVSVYQEPEGSGLDDHRIKRKEDNLSLSCVIGSSGSFSQRNHLPSSGTSTPSSMVDIPPPFDLACITKKPITKSSPSLLIESDSPDKYKKKKSSFKRFLALTFKKKTENKLHVDVNVSSSRSSSESSYHGPSRILEVDRRSLSNSPQLKSRTGKLRASESPSSLIFYRDGKRKGVPFSRTVSRVESFEDRSRPPFLPLPLTKPRSISFPSADTSDYENIPAMNSDYENIQIPPRRPARAGAFTKLFEDQSRALSTANENDGYVDMSSFNAFESKQQSADQDAESAYTEPYKVCPISSAAPKEDLTSDEEQRSSEEEDSASRDPSVTHKVEGQSRALVIAQELLSSEKAYVEMLQHLNLDFHGAVMRALDDMDHEGRDTLAREELRQGLSELPAIHDLHQGILEELEERLSNWESQQKVADVFLAREQGFDHHATHILQFDRYLGLLSENCLHSPRLAAAVREFEQSVQGGSQTAKHRLLRVVQRLFQYQVLLTDYLNNLCPDSAEYDNTQGALSLISKVTDRANDSMEQGENLQKLVHIEHSVRGQGDLLQPGREFLKEGTLMKVTGKNRRPRHLFLMNDVLLYTYPQKDGKYRLKNTLAVANMKVSRPVMEKVPYALKIETSESCLMLSASSCAERDEWYGCLSRALPEDYKAQALAAFHHSVEIRERLGVSLGERPPTLVPVTHVMMCMNCGCDFSLTLRRHHCHACGKIVCRNCSRNKYPLKYLKDRMAKVCDGCFGELKKRGRAVPGLMRERPVSMSFPLSSPRFSGSAFSSVFQSINPSTFKKQKKVPSALTEVAASGEGSAISGYLSRCKRGKRHWKKLWFVIKGKVLYTYMASEDKVALESMPLLGFTIAPEKEEGSSEVGPIFHLYHKKTLFYSFKAEDTNSAQRWIEAMEDASVL
B4: aldolase-A (protein, UniProt P04075 1-364)
chain: MPYQYPALTPEQKKELSDIAHRIVAPGKGILAADESTGSIAKRLQSIGTENTEENRRFYRQLLLTADDRVNPCIGGVILFHETLYQKADDGRPFPQVIKSKGGVVGIKVDKGVVPLAGTNGETTTQGLDGLSERCAQYKKDGADFAKWRCVLKIGEHTPSALAIMENANVLARYASICQQNGIVPIVEPEILPDGDHDLKRCQYVTEKVLAAVYKALSDHHIYLEGTLLKPNMVTPGHACTQKFSHEEIAMATVTALRRTVPPAVTGITFLSGGQSEEEASINLNAINKCPLLKPWALTFSYGRALQASALKAWGGKKENLKAAQEEYVKRALANSLACQGKYTPSGQAGAAASESLFVSNHAY

Molecular target: T1, wild-type (WT) p130Cas, overexpressed from adenovirus (Ad.p130Cas)
Test: affinity purification with mass spectrometry; p130Cas antibody immunoprecipitates from lysates of HUVECs infected with Ad.p130Cas, treated with VEGF for 0, 10, 30 and 60 min; lysis in 10 mM Tris-HCl pH 7.4, 50 mM NaCl, 5 mM EDTA, 1% Triton-X100; isotype-matched mouse IgG as control; label-free LC-MS/MS, three independent experiments

binding, binds:
Profilin-1 (from UniProt P07737 1-140)
microtubule associated monooxygenase, calponin and LIM domain containing 2 (MICAL2) (from UniProt O94851 1-1957)
spire type actin nucleation factor 1 (SPIRE1) (from UniProt Q08AE8 1-756)
Slit-Robo Rho GTPase activating protein 1 (SRGAP1) (from UniProt Q7Z6B7 1-1085)
tyrosine 3-monooxygenase/tryptophan 5-monooxygenase activation protein epsilon (YWHAE or 14-3-3 epsilon) (from UniProt P62258 1-255)
CDC42 binding protein kinase beta (CDC42BPB or myotonic dystrophy-related CDC42-binding kinase (MRCKβ)) (from UniProt Q9Y5S2 1-1711)
IQGAP1, GTPase-binding scaffold protein, endogenous (from UniProt P46940 1-1657)
B1
B2
B3
B4
